US20090068110A1, “ANTIBODIES TO INSULIN-LIKE GROWTH FACTOR RECEPTOR” (Genentech, Inc., priority 2006, published 2009)
These are yes or no findings as the source states them, for the method shown. A result given as binding can be weak or reduced; the word gives no strength.

Biological target: cynomolgus-monkey IGF-1R (cynomolgus monkey)
Test: SPR (BIACORE 3000), IgG as analyte, values in FIG. 15

B1: chimeric 10H5-IgG (antibody, V domains shown)
VH: QVQLQQPGAELVKPGASVTLSCKASGYTFTRFWIHWVKQRPGQGLEWIGEINPSNGRTNYNENFKNKATLTVDTSSSTAYMQLSSLTSEVSVVYYCARGGRLDQWGQGTT
VL: DIVMTQSQKFMSTSLGDRVSVTCKASQNVGSNVAWYQQKPGQSPEALIYSASYRYSGVPDRFTGSGSGTDFTLTISNVQSEDLAEYFCHQYNNYPYTFGGGTKVEIKR
Question: For B1, which binding is on record?
Answer: binds
